Measurements taken from PMC10989685.
Substitutions are numbered along the chain they refer to. These are yes or no findings as the source states them, for the method shown. Some entries that bind do so weakly or less than the wild type. For some assays here: Sequences can lack the tags named with a protein.

Protein sequences, listed by entry. Tags and fused reporters are not part of them. Residues count along the entry.
UniProt E9Q7X7, residues 29-1634: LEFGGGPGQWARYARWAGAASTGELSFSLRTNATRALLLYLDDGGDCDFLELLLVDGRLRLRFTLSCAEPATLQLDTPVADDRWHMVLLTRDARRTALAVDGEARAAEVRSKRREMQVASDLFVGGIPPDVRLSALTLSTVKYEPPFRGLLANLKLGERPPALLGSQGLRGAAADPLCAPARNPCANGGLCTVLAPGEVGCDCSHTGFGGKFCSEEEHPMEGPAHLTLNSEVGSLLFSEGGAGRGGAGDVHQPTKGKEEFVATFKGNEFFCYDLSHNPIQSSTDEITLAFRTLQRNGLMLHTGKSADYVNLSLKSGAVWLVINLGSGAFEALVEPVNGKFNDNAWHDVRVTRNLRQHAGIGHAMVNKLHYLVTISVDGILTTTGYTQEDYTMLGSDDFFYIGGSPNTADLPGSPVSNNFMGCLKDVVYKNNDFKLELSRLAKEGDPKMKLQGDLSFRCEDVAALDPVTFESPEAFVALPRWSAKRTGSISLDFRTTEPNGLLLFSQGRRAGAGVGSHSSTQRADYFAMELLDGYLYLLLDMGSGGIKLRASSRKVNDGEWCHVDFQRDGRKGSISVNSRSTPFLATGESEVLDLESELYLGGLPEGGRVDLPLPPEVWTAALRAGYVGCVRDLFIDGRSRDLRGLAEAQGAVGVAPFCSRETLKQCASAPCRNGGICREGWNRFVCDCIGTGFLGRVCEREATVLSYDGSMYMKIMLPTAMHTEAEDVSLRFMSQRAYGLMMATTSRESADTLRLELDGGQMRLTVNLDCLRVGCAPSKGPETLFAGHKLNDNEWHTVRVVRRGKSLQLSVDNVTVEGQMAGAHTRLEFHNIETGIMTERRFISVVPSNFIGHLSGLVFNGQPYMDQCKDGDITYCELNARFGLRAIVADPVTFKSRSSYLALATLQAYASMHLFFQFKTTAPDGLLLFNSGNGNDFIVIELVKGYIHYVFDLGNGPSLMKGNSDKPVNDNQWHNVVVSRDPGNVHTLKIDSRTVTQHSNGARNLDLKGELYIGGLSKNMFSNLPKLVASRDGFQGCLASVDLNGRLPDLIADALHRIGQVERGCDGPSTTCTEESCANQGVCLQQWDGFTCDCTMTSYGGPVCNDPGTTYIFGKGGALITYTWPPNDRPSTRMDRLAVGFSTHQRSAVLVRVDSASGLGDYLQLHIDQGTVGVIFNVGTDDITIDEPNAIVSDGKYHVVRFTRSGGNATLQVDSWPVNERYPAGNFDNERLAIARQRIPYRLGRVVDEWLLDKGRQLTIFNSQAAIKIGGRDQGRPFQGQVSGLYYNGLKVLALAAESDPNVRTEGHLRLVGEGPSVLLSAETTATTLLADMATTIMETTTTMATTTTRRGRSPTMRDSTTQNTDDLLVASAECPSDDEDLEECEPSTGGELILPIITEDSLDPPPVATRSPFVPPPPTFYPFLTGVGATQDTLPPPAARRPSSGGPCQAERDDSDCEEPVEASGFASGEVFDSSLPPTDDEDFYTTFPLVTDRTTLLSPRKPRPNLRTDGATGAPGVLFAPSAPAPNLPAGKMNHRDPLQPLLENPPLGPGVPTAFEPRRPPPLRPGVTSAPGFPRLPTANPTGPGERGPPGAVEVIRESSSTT

Key:
Assay in all cases: in situ cell surface binding assay (fluorescence microscopy); HEK293T conditioned medium with Nrxn2α-Fc applied for 1 h at 4°C to COS7 cells expressing HA-tagged IgSF21 forms, in extracellular solution with 2 mM CaCl2, 1.3 mM MgCl2; bound Fc signal divided by surface HA signal and normalised to IgSF21 WT
[1] = molecular target: T1, IgSF21-HA D76N (mouse) (UniProt Q7TNR6)
T1 sequence: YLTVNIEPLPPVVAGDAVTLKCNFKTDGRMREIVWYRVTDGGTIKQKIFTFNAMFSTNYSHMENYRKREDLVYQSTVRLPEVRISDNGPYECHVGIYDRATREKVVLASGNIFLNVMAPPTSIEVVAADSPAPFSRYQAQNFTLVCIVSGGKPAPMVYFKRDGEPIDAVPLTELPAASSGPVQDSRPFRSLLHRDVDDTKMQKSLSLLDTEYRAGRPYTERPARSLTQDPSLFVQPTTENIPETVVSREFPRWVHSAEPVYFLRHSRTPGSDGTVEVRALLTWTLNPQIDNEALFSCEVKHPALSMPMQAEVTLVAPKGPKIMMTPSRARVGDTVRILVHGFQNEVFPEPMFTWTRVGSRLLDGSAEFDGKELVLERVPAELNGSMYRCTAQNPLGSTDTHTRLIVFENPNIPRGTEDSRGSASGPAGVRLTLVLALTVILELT

[2] = molecular target: T2, IgSF21-HA E56D (mouse) (UniProt Q7TNR6)
T2 sequence: T1 sequence with E32D, N52D

[3] = molecular target: T3, IgSF21-HA R55K (mouse) (UniProt Q7TNR6)
T3 sequence: T1 sequence with R31K, N52D

[4] = molecular target: extracellularly HA-tagged mouse IgSF21 (IgSF21-HA), wild type (mouse) (UniProt Q7TNR6)
[5] = molecular target: T4, IgSF21-HA K45D (mouse) (UniProt Q7TNR6)
T4 sequence: T1 sequence with K21D, N52D

soluble Fc-tagged mouse Nrxn2α ectodomain (Nrxn2α-Fc) (from UniProt E9Q7X7 29-1634) (Fc fusion)
binding [1]: no binding | binding [2]: no binding | binding [3]: no binding | binding [4]: binds | binding [5]: binds
